Consider two substances from article doi:10.1101/2021.05.13.443999.

Sequences of proteins named here, by UniProt entry; tags and fusion partners are left off.
UniProt P14598: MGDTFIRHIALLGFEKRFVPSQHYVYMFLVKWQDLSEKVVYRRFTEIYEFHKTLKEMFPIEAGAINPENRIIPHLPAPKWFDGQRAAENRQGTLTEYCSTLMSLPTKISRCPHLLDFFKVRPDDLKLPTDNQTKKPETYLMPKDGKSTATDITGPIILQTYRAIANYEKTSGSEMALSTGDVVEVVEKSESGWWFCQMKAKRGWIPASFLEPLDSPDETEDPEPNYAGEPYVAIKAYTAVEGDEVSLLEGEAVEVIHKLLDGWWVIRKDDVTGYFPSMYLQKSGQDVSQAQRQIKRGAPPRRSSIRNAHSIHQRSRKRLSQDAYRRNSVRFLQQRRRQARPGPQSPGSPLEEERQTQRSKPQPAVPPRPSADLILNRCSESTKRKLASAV
UniProt F1M707: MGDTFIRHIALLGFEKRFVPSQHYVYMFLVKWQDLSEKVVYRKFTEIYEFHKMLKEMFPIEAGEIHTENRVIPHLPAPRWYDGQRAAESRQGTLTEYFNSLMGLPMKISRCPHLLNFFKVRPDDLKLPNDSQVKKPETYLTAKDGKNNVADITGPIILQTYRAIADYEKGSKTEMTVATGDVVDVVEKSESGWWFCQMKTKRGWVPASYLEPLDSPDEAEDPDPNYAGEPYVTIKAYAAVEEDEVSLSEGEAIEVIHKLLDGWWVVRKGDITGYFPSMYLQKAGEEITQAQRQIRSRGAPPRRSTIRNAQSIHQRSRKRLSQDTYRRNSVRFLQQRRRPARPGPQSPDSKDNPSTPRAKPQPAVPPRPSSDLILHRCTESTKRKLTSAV

In test [1] the target is T1, NADPH oxidase 2 (NOX2) (human (endogenous in HEK-293 and in human midbrain)) (UniProt P04839).
T1 sequence: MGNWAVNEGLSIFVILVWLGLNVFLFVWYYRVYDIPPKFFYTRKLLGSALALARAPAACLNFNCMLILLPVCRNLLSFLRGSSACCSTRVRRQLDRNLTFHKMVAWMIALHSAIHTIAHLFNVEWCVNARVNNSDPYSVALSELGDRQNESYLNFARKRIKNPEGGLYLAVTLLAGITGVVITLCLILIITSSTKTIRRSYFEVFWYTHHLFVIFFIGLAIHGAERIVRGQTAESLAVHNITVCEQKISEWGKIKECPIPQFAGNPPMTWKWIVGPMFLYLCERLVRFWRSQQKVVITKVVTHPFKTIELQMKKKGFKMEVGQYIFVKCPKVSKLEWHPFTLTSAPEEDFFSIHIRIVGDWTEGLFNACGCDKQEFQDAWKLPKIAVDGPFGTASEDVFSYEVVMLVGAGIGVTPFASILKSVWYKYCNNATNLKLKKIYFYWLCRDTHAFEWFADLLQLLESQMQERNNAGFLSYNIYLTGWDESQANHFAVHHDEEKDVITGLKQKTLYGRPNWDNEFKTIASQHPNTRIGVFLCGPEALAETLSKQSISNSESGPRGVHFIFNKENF
As to the kind of experiment: co-IP.

Test [2] has as its target T1, NADPH oxidase 2 (NOX2) (human (endogenous in HEK-293 and in human midbrain)). Kind of test: proximity ligation.
The target in test [3] is NADPH oxidase 2 (NOX2) (rat) (rat (endogenous in rat substantia nigra)) (UniProt Q9ERL1). As to the kind of experiment: proximity ligation.

No constants are given. Whether binding was seen depends on the method and setting. Binding seen in cells or lysates may run through a third protein. Some binding calls cover weakened binding; strength is not graded here.

Turning to p47^phox (from UniProt P14598 1-390), the binding entry in test [1] and in test [2] was “binds” throughout.

With “p47^phox (rat) (from UniProt F1M707 1-389)”, the binding entry in test [3] is recorded as “binds”.
